In US20100099614A1, “Antimicrobial Peptides and Methods of Use” (priority 2008, published 2010):

Tested on: Gram-negative bacteria
Assay: Antibacterial activity (MIC), microtiter dilution
Type: cell-based
Description: MICs were determined by a standard microtiter dilution method in Mueller Hinton Broth (MHB). Serial dilutions of the 10× compound were added to the microtiter plates in a volume of 10 μL followed by 90 μL of bacteria for an inoculum of 5×10^5 colony-forming units (CFU)/mL. The plates were incubated at 37° C. for 24 h, and the MICs were determined as the lowest peptide concentration that inhibited growth. […]
Alternatively; minimal inhibitory concentrations were determined using a standard microtiter dilution method in a Mueller-Hinton (MH) medium. Briefly, cells were grown overnight at 37° C. in MH broth and diluted in the same medium. Serial dilutions of the peptides were added to the microtiter plates in a volume of 100 μl followed by 10 μl of bacteria for an initial cell concentration of 1×10^5 CFU/ml. Plates were incubated at 37° C. for 24 hours and MICs determined as the lowest peptide concentration that inhibited growth.

CC[C@@H](C)[C@@H](NC(=O)[C@@H](C)NC(=O)[C@@H](CCCCN)NC(=O)[C@@H](CC(C)C)NC(=O)[C@@H](C)NC(=O)[C@H](NC(=O)[C@@H](Cc1c[nH]cn1)NC(=O)[C@@H](CC(C)C)NC(=O)[C@H](NC(=O)[C@H](NC(=O)[C@@H](CCCCN)NC(=O)[C@@H](CCCCN)NC(=O)[C@@H](C)NC(=O)[C@@H](CO)NC(=O)[C@@H](CCCCN)NC(=O)[C@@H](Cc1ccccc1)NC(=O)[C@H](NC(=O)[C@@H](CCCCN)NC(=O)[C@@H](CC(C)C)NC(=O)[C@@H](Cc1ccccc1)NC(=O)[C@@H](CO)NC(=O)[C@@H](CCCCN)NC(=O)[C@@H](Cc1c[nH]c2ccccc12)NC(=O)[C@@H](CCCCN)NC(C)=O)[C@H](C)O)[C@H](C)O)C(C)C)[C@H](C)O)C(=O)N[C@H](CO)C(=O)N[C@H](CO)C(N)=O [D1]
Therapeutic index HC50/MIC, Gram-negative bacteria (ratio of HC50 (μg/mL) over geometric mean MIC (μg/mL)): 198.4
Therapeutic index Fold (fold improvement compared to that of D4), Gram-negative bacteria (relative to D4): 1281 fold
